These are yes or no findings as the source states them, for the method shown. Some entries that bind do so weakly or less than the wild type.
B1: AtPAPS1 (protein, UniProt Q9LMT2 1-713)
chain: MASVQQNGQRFGVSEPISMGGPTEFDVIKTRELEKHLQDVGLYESKEEAVRREEVLGILDQIVKTWIKTISRAKGLNDQLLHEANAKIFTFGSYRLGVHGPGADIDTLCVGPRHATREGDFFGELQRMLSEMPEVTELHPVPDAHVPLMGFKLNGVSIDLLYAQLPLWVIPEDLDLSQDSILQNADEQTVRSLNGCRVTDQILRLVPNIQNFRTTLRCMRFWAKRRGVYSNVSGFLGGINWALLVARICQLYPNALPNILVSRFFRVFYQWNWPNAIFLCSPDEGSLGLQVWDPRINPKDRLHIMPIITPAYPCMNSSYNVSESTLRIMKGEFQRGNEICEAMESNKADWDTLFEPFAFFEAYKNYLQIDISAANVDDLRKWKGWVESRLRQLTLKIERHFKMLHCHPHPHDFQDTSRPLHCSYFMGLQRKQGVPAAEGEQFDIRRTVEEFKHTVNAYTLWIPGMEISVGHIKRRSLPNFVFPGGVRPSHTSKGTWDSNRRSEHRNSSTSSAPAATTTTTEMSSESKAGSNSPVDGKKRKWGDSETLTDQPRNSKHIAVSVPVENCEGGSPNPSVGSICSSPMKDYCTNGKSEPISKDPPENVVAFSKDPPESLPIEKIATPQAHETEELEESFDFGNQVIEQISHKVAVLSATATIPPFEATSNGSPFPYEAVEELEVLPTRQPDAAHRPSVQQRKPIIKLSFTSLGKTNGK
B2: AtPABN1 (protein, UniProt Q9FJN9 1-220)
chain: MEEEEHEVYGGEIPDVGEMDGDMEALNPDLDMAAADDDAVKELDEMKKRLKEMEDEAAALREMQAKVEKEMGAQDPASIAANQAGKEEVDARSVFVGNVDYACTPEEVQQHFQTCGTVHRVTILTDKFGQPKGFAYVEFVEVEAVQEALQLNESELHGRQLKVLQKRTNVPGLKQFRGRRFNPYMGYRFRRPFMSPYMYSPYGYGKAPRFRRPMRYMPYQ
B3: AtCSTF64 (protein, UniProt Q9M9G6 1-461)
chain: MASSSSQRRCVFVGNIPYDATEEQLREICGEVGPVVSFRLVTDRETGKPKGYGFCEYKDEETALSARRNLQSYEINGRQLRVDFAENDKGTDKTRDQSQGGPGLPSTTTVTESQKQIGGPVDSNMHQPVGLHLATTAASVIAGALGGPQVGSQFTQSNLQVPASDPLALHLAKMSRSQLTEIISSIKLMATQNKEHARQLLVSRPQLLKAVFLAQVMLGIVSPQVLQSPNIVQAPSHMTGSSIQDAQLSGQNLLPPLAQRSQQLSRAPHSQYPVQQSSKQPFSQIPQLVAQPGPSSVNPPPRSQVKVENAPFQRQQVVPASTNIGYSSQNSVPNNAIQPSQVPHQALPNSVMQQGGQTVSLNFGKRINEGPPHQSMNRPSKMMKVEDRRTTSLPGGHVSNSMLPNQAQAPQTHISPDVQSTLLQQVMNLTPEQLRLLTPEQQQEVLKLQQALKQDHMMQPS
B4: AtPAPS3 (protein, UniProt Q56XM9 1-507)
chain: MKKGGGRNKGFPQDDESSISLRQLMVNEGLIPSLEDEVKRRGVINQLRKIVVRWVKNVAWQHRLPQNQIDATNATILPYGSYGLGVYGSESDIDALCIGPFFASIAEDFFISLRDMLKSRREVSELHCVKDAKVPLIRFKFDGILVDLPYAQLRVLSIPNNVDVLNPFFLRDIDETSWKILSGVRANKCILQLVPSLELFQSLLRCVKLWAKRRGVYGNLNGFLGGVHMAILAAFVCGYQPNATLSSLLANFFYTFAHWQWPTPVVLLEDTYPSTGAPPGLMPIQLPCGSHQYCNSTITRSTFYKIVAEFLLGHNLTKDYLKLNFSWKDLFELYPYANTYTWFTKIHLSAANQEDLSDWVGWVKSRFRCLLIKIEEVYGICDPNPTEYVETYTKQPNIVFYWGLQLRTINVSDIESVKIDFLKNVNSGSFRGTVGRIQLTLVKASQLPKNGECGSNNRSKKVTKTCWRIREDKQCNNVPVYSKHLPGYVVGYQKMVNREADGMEVKC
B5: AtPABN3 (protein, UniProt Q9LX90 1-217)
chain: MEEEEHEVYGGEIPEVGDTDVPDPDIDMSAADEDAVTELAEMKRRLKEMEEEAAALREMQAKVEKEMGATQDPASMAANQEGKEEVDARSVYVGNVDYACTPEEVQLHFQTCGTVNRVTILMDKFGQPKGFAYVEFVEVEAVQEALQLNESELHGRQLKVSPKRTNVPGMKQYHPGRFNPSMGYRFRRPFVPPYFYSPYGYGKAPRFRRPMRYMPYQ
B6: AtPAPS2 (protein, UniProt O82312 1-800)
chain: MVSTQQRTDDDSSQPVKASLKSYGITEPLSIAGPSAADVKRNLELEKFLVDEGLYESKEETMRREEVVVRIDQIVKHWVKQLTRQRGYTDQMVEDANAVIFTFGSYRLGVHGPMADIDTLCVGPSYVNREEDFFIFFRDILAEMEEVTELQPVTDAHVPVMKFKFQGISIDLLYASISLLVIPQDLDISNSSVLCDVDEQTVRSLNGCRVADQILKLVPNSEHFRTTLRCLKYWAKKRGVYSNVTGFLGGVNWALLVARLCQFYPNAIPSMLVSRFFRVYTQWRWPNPVMLCAIEEDDLSFPVWDPRKNHRDRYHLMPIITPAYPCMNSSYNVSQSTLRVMTEQFQFGNTICQEIELNKQHWSSLFQQYMFFEAYKNYLQVDVLAADAEDLLAWKGWVESRFRQLTLKIERDTNGMLMCHPQPNEYVDTSKQFRHCAFFMGLQRADGFGGQECQQFDIRGTVDEFRQEVNMYMFWRPGMDVHVSHVRRRQLPSFVFPNGYKRSRQSRHQSQQCREPGDEGVGSLSDSVERYAKRKNDDEIMNSRPEKREKRASCSLHTLDAASPDSSGITTSGTPQIGIVPGPRAECLVTGDLVCNVTSLPNVEVEAEKFISKITELRKFSQYEHTSGSEQILEVDSRALVQSYHDLAEPVAKHVRPDLSALLACEGGQNKEIGHDMGSESINDTDTQHLPRRLNVNEDVDEVEREAKLGEIAGGVLWNGHCGRNLDHEGFVTPANLDSAVENRNLHSDGLFKSGLPEELQSNSLLSGTGKLDDGARSESLQNEMMRHVFLQPIIGLCKS

Target: T1, AtFIPS5 (Arabidopsis) (UniProt F4KDH9)
T1 sequence: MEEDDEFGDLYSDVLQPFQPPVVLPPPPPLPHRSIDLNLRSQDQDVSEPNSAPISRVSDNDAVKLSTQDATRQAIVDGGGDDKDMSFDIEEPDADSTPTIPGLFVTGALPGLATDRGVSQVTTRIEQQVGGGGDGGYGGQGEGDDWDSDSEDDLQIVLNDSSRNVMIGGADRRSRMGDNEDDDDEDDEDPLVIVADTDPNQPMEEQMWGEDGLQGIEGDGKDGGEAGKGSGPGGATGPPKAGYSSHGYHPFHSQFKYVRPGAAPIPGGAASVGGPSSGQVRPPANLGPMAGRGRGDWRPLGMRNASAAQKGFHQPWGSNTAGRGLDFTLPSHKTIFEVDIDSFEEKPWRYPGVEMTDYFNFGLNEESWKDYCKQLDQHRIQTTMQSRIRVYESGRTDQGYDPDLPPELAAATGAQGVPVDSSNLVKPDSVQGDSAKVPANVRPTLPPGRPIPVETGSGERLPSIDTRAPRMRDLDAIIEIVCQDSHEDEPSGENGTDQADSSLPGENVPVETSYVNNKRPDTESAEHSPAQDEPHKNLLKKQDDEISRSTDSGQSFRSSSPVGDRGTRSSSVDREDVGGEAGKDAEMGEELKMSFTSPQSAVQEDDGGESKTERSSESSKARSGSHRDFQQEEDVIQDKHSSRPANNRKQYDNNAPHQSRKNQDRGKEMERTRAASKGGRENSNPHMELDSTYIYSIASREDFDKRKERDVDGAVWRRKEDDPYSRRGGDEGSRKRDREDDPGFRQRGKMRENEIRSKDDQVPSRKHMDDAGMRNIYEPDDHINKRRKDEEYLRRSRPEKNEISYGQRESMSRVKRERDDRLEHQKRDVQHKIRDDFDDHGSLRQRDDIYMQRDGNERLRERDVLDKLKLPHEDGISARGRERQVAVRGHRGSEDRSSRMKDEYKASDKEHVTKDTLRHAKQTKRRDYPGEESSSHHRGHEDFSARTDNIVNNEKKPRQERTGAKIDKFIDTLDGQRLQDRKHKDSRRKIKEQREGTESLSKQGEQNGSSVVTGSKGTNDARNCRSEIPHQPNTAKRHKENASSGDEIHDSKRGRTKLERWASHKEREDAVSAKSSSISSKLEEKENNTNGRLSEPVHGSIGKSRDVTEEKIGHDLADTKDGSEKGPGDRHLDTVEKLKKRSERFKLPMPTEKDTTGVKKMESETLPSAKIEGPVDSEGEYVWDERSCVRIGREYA
Experiment: two-hybrid; AD (pGAD-C(1)) and BD (pGBD-C(1)) fusions in yeast PJ69-4; dual transformants tested on media lacking leucine, tryptophan and adenine; positive if all tested colonies (4 to 10) grew; both combinations of clones tested whenever possible

binding, binds:
B1
B2
B3
B4
B5
B6
